The other results are listed elsewhere or left out.

For this experiment, the system named is T1, CTL2-GFP (C. trachomatis L2/434/Bu, GFP-expressing).
T1 construct: L2/434/Bu, GFP-expressing
Details: species or system HeLa; Intracellular C. trachomatis growth in HeLa cells, bulk GFP fluorescence relative to DMSO. The conditions noted are these: bulk GFP, single well; 28.5 h, 10 µM; inhibitor.
On to `N#Cc1ccc(Oc2ccc(C(=O)NCC(=O)O)cc2)cc1` [CBK286579], for which the “% of control remaining” value was 115.483%.
`COC(=O)c1cccc(CN2CCC3(CC2)OCCc2c3[nH]c3ccc(F)cc23)c1` [CBK040326]: the “% of control remaining” value is 96.7028%.
For `O=C(O)c1ccc(CN2CCOCC2)o1` [CBK261426C], the “% of control remaining” value turned out to be 112.038%.
For the molecule `Cc1ccc(NC(=O)N2CCCC(C(=O)O)C2)cc1` (centres unmarked) [CBK161371], the “% of control remaining” value was 119.177%.
Regarding `Cc1cc(NC(=O)C2CCN(C(=O)CCSc3ccccc3)CC2)no1` [CBK304329], the “% of control remaining” value is reported as 129.099%.
For the molecule `CSCCC(C(=O)O)N1CNC(=S)NC1` (centres unmarked) [CBK011382], the “% of control remaining” value came out at 100%.
For `O=C(Nc1ccccc1-c1ccccc1)c1cc(-c2ccncc2)nc2ccc(Cl)cc12` [CBK267759] the value was 103.913%; for `CC1CCc2nc(NC(=O)C3CN(S(=O)(=O)c4ccc(F)cc4)C3)sc2C1` (centres unmarked) [CBK286004], 95.8893%; for `Cc1ccc2[nH]c3c(c2c1)CC(NS(=O)(=O)c1c(N)noc1C)CC3` (centres unmarked) [CBK306270], 155.086%.
Turning to `O=C1N[C@@H](CC2CCCCC2)C(=O)N2CCN(C(=O)c3cccc(F)c3)C[C@H]12` [CBK289599], the “% of control remaining” value is recorded as 174.522%.
Regarding `O=C(O)c1ccc(-c2ccc(OC(F)(F)F)cc2)nc1` [CBK160173T], the “% of control remaining” value was 108.136%.
Turning to `COC(=O)CSc1nnc(CSc2cc(C)nc(N3CCOCC3)n2)o1` [CBK007059], the “% of control remaining” value is given as 124.771%.
For `O=C(CSc1nnc(-c2ccncc2)n1Cc1ccccc1)Nc1ccc(Cl)cc1` [CBK269346] the value was 133.259%; for `c1ccc2c(CCNc3nccnc3-c3ccoc3)c[nH]c2c1` [CBK036743], 87.9158%.
Turning to `O=C(c1cncs1)N1CCn2nc(C(O)Cc3ccccc3)cc2C1` (centres unmarked) [CBK306754], the “% of control remaining” value worked out at 113.373%.
For `C=Cn1ncc(CN2C3CCC2CC(O)(c2ccc(F)cc2)C3)c1C` (centres unmarked) [CBK282738] the value was 139.938%; for `Cc1ccc(NC(=O)OCCN2CCN(C)CC2)c(C)n1` [CBK200135], 97.8009%.
As to `COc1ccc([C@@]23CCC(NC(=O)CCc4cccnc4)C[C@@H]2N(C)CC3)cc1OC` (some centres unmarked) [CBK003770], the “% of control remaining” value is listed as 91.7319%.
On to `O=C(c1ccc(OC(F)(F)F)cc1)N1CCC2(CCN(C(=O)c3ccoc3)C2)C1` (centres unmarked) [CBK131735], for which the “% of control remaining” value came to 132.699%.
For `COc1ccc(-c2ccc(=O)n(CC(=O)NC(C(=O)O)c3ccccc3)n2)c(F)c1` (centres unmarked) [CBK286769] the value was 149.501%.
For `O=C(NCc1ccc(Cl)cc1)N1CCN(CCc2ccccc2)CC1` [CBK158922] the value was 91.0705%; for `CC(C)c1ccc(S(=O)(=O)Nc2ccc(C(=O)O)c(O)c2)cc1` [CBK299819], 108.544%.
For `FC(F)(F)c1ccnc(OCc2ccc(Cl)c(Cl)c2)c1` [CBK116623] the value was 120.621%; for `CN1CCN(S(=O)(=O)c2ccc(Oc3ccc([N+](=O)[O-])cc3)cc2)CC1` [CBK262248], 88.0829%.
For the molecule `O=C1NCCc2c1[nH]c1ccccc21` [CBK101624], the “% of control remaining” value was determined as 88.4174%.
As for `N/C(=N/OC(=O)c1ccc2nsnc2c1)c1ncon1` [CBK263847], the “% of control remaining” value is given as 103.088%.
`Cc1ccc2nsnc2c1NC(=O)Cc1cccc2ccccc12` [CBK266279]: the “% of control remaining” value turned out to be 188.878%.
As for `C=CCNC(=O)C1CCCN(c2nc3ccccc3n2C)C1` (centres unmarked) [CBK282872], the “% of control remaining” value is given as 107.481%.
For `Cc1ccc(S(=O)(=O)NC(=O)Nc2cccc(NC(=O)NS(=O)(=O)c3ccc(C)cc3)n2)cc1` [CBK296102] the value was 123.764%.
For `Cn1cc(CCN2CCC(C(=O)NC(=O)Nc3ccccc3)CC2)c2ccccc21` [CBK034867], the “% of control remaining” value is recorded as 126.711%.
For `O=C1NCC2(CCN(C(=O)c3ccco3)CC2)Oc2ccccc21` [CBK282919] the value was 73.3207%.
Turning to `O=c1c(Cl)c(O)c2ccccc2n1Cc1ccccc1` [CBK291164], the “% of control remaining” value is 120.512%.
Turning to `C[C@@H]1CN(Cc2ccco2)CCN1C(=O)c1nccc2ccccc12` [CBK285489], the “% of control remaining” value stood at 91.3132%.
As to `COc1ccc(CC(=O)NC2CC(C)(C)Cc3c2cnn3C)cc1` (centres unmarked) [CBK282886], the “% of control remaining” value was 123.57%.
For `O=C1NC/C=C/CC2(CCN(Cc3c[nH]c4ccccc34)CC2)C(=O)NCCOc2ccccc21` [CBK292085] the value was 155.787%; for `CCc1nc2ccc(C(=O)Nc3cccc(OC)c3)cn2c1N(C)Cc1cccs1` [CBK145522], 108.579%; for `CC(C)OC(=O)N1CCC(N(C)Cc2ccc(-c3ccc(S(C)(=O)=O)cc3)nc2)CC1` [CBK165261T], 128.241%.
For the molecule `O=S(=O)(Nc1cccc(-c2nnn[nH]2)c1)c1cc(Br)c(Cl)s1` [CBK160374], the “% of control remaining” value is listed as 131.877%.
For `CCc1cc(S(=O)(=O)NC2CC(C)(C)NC(C)(C)C2)ccc1OC` [CBK270097] the value was 107.562%; for `CCOC(=O)C1(C)C=C(Nc2cccc(C)c2)C(=O)N1c1ccccc1` (centres unmarked) [CBK263757], 122.468%; for `CCOc1sc(=S)n(C)c1C(C)=O` [CBK019515], 108.254%.
For `O=C(COc1ccccc1)Nc1ccccc1Sc1ncnc2sc3c(c12)CCCC3` [CBK266171] the value was 178.304%; for `CN(c1ccccc1)C1CCN(c2nc3c(cnn3C)c(=O)[nH]2)CC1` [CBK305215], 133.88%; for `COC(=O)c1c(NC(=O)C(=O)NCc2ccccn2)sc2c1CCCC2` [CBK269505], 110.078%.
For `CC(=O)Nc1cc(C(=O)NCCc2ccccc2)ccc1S(=O)(=O)c1ccc(C)cc1` [CBK071771] the value was 120.536%; for `CC(C)c1cc(C(=O)N[C@@H]2CCOC[C@H]2Oc2ccc(CO)cc2)on1` [CBK306554], 90.6725%; for `COc1cc(C(C)NC2CCN(c3nc(C)cs3)CC2)ccn1` (centres unmarked) [CBK304247], 116.729%.
As for `NNC(=O)c1ccc(Oc2ccc(C(=O)NN)cc2)cc1` [CBK260995], the “% of control remaining” value came to 112.841%.
Take `COc1ccccc1N1C(=O)CC(N2CCC(C(N)=O)(N3CCCCC3)CC2)C1=O` (centres unmarked) [CBK265533]: the “% of control remaining” value came out at 100%.
For `CC(=O)N[C@@H](Cc1ccccc1)C(=O)N1CC[C@H]2NC(=O)[C@H](Cc3ccccc3)NC(=O)C3(C/C=C/C[C@@H]2C1)CCOCC3` [CBK292190] the value was 120.444%; for `COCCCNc1nc2c(-c3ccc(Cl)cc3)nnn2c2ccccc12` [CBK287770], 122.397%.
Consider `CS(=O)(=O)N(Cc1ccccc1)c1ccc(C(=O)N/N=C/c2ccccc2C(F)(F)F)cc1` [CBK262711], for which the “% of control remaining” value came out at 101.328%.
For `Cc1ccc(C2=CCN(CC(=O)Nc3nc(C)c(C)s3)CC2)o1` [CBK283607] the value was 102.838%; for `CN(C)S(=O)(=O)N(CC(=O)NCc1ccco1)c1ccccc1` [CBK267971], 129.989%; for `NCCn1cc(C(=O)N2Cc3cnn(Cc4ccc(F)cc4)c3C2)nn1` [CBK307461], 121.295%.
Consider `COc1ccc(-c2[nH]c(=S)ncc2-c2ccccc2)c(O)c1` [CBK288447], for which the “% of control remaining” value worked out at 112.059%.
For `O=C(O)c1ccccc1N1C(=O)C2CC=C(Cl)CC2C1=O` (centres unmarked) [CBK287007] the value was 135.273%; for `Clc1ccc(N2CCN(c3cnc4ccccc4n3)CC2)cc1Cl` [CBK066903], 103.211%.
Consider `COc1ccc(-c2nc(C3CCN(C(=O)NC(C)(C)C)CC3)n3ccccc23)cc1` [CBK047080], for which the “% of control remaining” value is recorded as 112.35%.
For `COc1ccc(C(C)NC(=O)c2cn[nH]c2-c2ccc(Cl)cc2)cc1` (centres unmarked) [CBK288065] the value was 124.799%; for `COc1ccc(-c2cc(C(=O)NCCS(C)(=O)=O)cnc2-c2ccc(Cl)cc2)cc1` [CBK037620], 122%.
With `Cc1ccc(SCCCNCCN(C)C)cc1` [CBK267807C], the “% of control remaining” value is recorded as 151.809%.
For `COc1cccc(C(=O)NCCC(=O)N2CCc3c(nc[nH]c3=O)C2)c1` [CBK307231] the value was 93.7111%.
For `CN(C)CCN(C)c1ccc(/C=C/c2ccccc2)cn1` [CBK037026] the value was 125.195%; for `CCc1ccc(CN2CCC(Oc3ccccc3F)(C(=O)O)CC2)nc1` [CBK307528], 127.569%.
On to `O=C(O)c1cc(-c2ccco2)nc2ccccc12` [CBK027882], for which the “% of control remaining” value came out at 112.796%.
For `O=C(c1cccnc1)N1CCCC2(CCN(C(=O)c3ccoc3)C2)C1` (centres unmarked) [CBK131640] the value was 110.481%; for `Cc1noc(C)c1C(=O)N1CCN(Cc2ccccc2)CC1` [CBK200173], 95.0879%; for `CC(C)Nc1ccc(S(=O)(=O)N(Cc2ccccc2)Cc2ccccc2)cn1` [CBK267307], 105.139%.
For the molecule `O=C(NCc1ccco1)[C@H]1CN2CCC1C[C@@H]2Cn1cc(CO)nn1` (some centres unmarked) [CBK289080], the “% of control remaining” value worked out at 112.638%.
`CC(c1ccccc1)N1CCn2c(nc3cc(NC(=O)COc4ccccc4)ccc32)C1` (centres unmarked) [CBK268033]: the “% of control remaining” value is 92.6051%.
For `COc1cc(C(=O)N2CCC3(CC2)CC(=O)c2ccc(-c4ccc(NS(C)(=O)=O)cc4)cc2O3)cc(OC)c1C` [CBK170163] the value was 130.338%; for `COc1ccc(C)cc1S(=O)(=O)N(CC(=O)O)c1ccc(C)c(Cl)c1` [CBK269655], 119.818%; for `CC(C)n1cnc2ccc(-c3noc(-c4nccc5ccccc45)n3)cc21` [CBK288617], 106.671%.
On to `CNS(=O)(=O)c1cccc(C(C)NC(=O)N2CCC(COC)CC2)c1` (centres unmarked) [CBK304087], for which the “% of control remaining” value was determined as 112.804%.
For `O=C(CCC1CCCC1)n1ccn(CCc2cccs2)c1=O` [CBK106611] the value was 109.255%; for `COc1cc(C(C)=O)ccc1OCC(O)Cn1c(=O)n(-c2ccccc2)c(=O)c2ccccc21` (centres unmarked) [CBK296677], 121.395%.
